Measured values published in publication doi:10.1101/2025.04.27.650876.
These are yes or no findings as the source states them, for the method shown. Some entries that bind do so weakly or less than the wild type. Tags and fused reporters may be left off the sequences shown.

T1: recombinant His-DPPA4 (human) (UniProt Q7L190)
T1 sequence: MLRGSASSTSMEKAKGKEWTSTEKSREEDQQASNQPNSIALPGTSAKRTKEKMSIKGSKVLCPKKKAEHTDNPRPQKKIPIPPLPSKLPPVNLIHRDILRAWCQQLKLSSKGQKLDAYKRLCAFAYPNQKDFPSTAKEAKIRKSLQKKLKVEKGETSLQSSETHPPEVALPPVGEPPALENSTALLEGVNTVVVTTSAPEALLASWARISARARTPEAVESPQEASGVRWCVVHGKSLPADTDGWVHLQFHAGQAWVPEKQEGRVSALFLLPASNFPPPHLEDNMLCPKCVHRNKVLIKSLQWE


Experiments:
[1] = target: recombinant DPPA2-Myc/Flag (human) (UniProt Q7Z7J5); experiment: mass photometry
[2] = target: T1, recombinant His-DPPA4 (human); experiment: mass photometry

Row | Binder | binding [1] | binding [2]
1 | recombinant DPPA2-Myc/Flag (protein, UniProt Q7Z7J5 1-298) MSDANLDSSKKNFLEGEVDDEESVILTLVPVKDDANMEQMEPSVSSTSDVKLEKPKKYNPGHLLQTNEQFTAPQKARCKIPALPLPTILPPINKVCRDTLRDWCQQLGLSTNGKKIEVYLRLHRHAYPEQRQDMPEMSQETRLQRCSRKRKAVTKRARLQRSYEMNERAEETNTVEVITSAPGAMLASWARIAARAVQPKALNSCSIPVSVEAFLMQASGVRWCVVHGRLLSADTKGWVRLQFHAGQAWVPTTHRRMISLFLLPACIFPSPGIEDNMLCPDCAKRNKKMMKRLMTVEK | binds | binds
2 | recombinant His-DPPA4 (protein, UniProt Q7L190 1-304) MLRGSASSTSMEKAKGKEWTSTEKSREEDQQASNQPNSIALPGTSAKRTKEKMSIKGSKVLCPKKKAEHTDNPRPQKKIPIPPLPSKLPPVNLIHRDILRAWCQQLKLSSKGQKLDAYKRLCAFAYPNQKDFPSTAKEAKIRKSLQKKLKVEKGETSLQSSETHPPEVALPPVGEPPALENSTALLEGVNTVVVTTSAPEALLASWARISARARTPEAVESPQEASGVRWCVVHGKSLPADTDGWVHLQFHAGQAWVPEKQEGRVSALFLLPASNFPPPHLEDNMLCPKCVHRNKVLIKSLQWE |  | binds
